Chains of the proteins cited; added tags and fusions are not shown. Lines headed by an entry give the natural chain unless they say otherwise; changes in a name come on top. Chains listed by the source or under a name are the forms on record and can include a tag or linker.
UniProt O43474: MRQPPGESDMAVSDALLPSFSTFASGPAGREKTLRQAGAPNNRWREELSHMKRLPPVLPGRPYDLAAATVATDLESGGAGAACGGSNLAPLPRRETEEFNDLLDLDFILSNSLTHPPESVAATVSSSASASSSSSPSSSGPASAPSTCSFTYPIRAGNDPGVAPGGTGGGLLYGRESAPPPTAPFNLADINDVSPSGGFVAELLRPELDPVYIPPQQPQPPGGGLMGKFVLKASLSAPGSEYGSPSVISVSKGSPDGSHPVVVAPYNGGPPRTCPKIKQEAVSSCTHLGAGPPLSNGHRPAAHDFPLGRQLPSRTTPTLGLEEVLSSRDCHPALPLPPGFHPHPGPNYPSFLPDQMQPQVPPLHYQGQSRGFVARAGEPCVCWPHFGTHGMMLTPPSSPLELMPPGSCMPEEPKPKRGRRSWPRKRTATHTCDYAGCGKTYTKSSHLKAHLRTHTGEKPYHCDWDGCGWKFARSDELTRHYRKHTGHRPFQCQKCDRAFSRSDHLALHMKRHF
UniProt Q01714, whole entry: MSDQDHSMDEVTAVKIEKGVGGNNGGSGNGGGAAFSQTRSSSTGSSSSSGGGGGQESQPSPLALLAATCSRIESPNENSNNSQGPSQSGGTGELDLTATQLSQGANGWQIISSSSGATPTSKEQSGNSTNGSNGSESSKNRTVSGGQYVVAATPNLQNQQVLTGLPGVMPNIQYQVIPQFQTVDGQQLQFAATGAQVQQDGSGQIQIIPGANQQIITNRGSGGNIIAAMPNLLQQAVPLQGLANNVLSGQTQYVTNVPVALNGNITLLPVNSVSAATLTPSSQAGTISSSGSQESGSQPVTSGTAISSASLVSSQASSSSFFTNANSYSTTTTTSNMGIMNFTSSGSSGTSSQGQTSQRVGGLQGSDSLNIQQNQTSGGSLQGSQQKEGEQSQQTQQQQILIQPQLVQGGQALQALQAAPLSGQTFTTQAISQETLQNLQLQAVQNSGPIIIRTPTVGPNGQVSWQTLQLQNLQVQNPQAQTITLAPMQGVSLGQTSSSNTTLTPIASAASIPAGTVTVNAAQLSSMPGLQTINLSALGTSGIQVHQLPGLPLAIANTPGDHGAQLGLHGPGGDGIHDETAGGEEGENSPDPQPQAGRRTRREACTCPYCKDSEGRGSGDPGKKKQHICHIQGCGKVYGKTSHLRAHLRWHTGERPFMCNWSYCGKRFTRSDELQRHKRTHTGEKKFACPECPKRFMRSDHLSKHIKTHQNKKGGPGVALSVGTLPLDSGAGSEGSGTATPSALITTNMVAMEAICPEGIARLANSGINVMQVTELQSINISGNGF
Sp1 (Homo sapiens), one chain, as listed by the source: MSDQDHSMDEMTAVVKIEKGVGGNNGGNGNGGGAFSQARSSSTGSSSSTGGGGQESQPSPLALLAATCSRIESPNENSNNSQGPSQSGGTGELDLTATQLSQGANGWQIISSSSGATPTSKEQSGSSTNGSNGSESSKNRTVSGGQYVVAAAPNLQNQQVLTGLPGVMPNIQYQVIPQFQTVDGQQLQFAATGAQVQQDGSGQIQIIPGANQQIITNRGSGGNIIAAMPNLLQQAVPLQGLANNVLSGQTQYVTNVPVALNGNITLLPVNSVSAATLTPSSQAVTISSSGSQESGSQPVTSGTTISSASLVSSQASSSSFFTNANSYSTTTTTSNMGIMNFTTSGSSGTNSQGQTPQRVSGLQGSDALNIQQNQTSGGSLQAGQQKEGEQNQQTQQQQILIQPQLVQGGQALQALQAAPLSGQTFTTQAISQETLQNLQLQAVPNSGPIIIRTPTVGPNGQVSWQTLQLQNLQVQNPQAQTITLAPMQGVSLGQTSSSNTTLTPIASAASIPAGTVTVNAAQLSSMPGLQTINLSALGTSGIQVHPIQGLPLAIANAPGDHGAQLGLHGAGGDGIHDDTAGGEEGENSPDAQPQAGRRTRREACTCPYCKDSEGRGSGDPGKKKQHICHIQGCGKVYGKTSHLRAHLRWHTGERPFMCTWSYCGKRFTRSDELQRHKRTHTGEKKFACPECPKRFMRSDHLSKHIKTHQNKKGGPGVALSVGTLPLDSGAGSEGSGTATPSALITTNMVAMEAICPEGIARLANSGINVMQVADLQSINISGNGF

In article PMC6517596:

What was measured:
[1] = molecular target: KLF4 (Homo sapiens) (UniProt O43474); test: EMSA; settings: EMSA: 2 ug nuclear extract or 50 ng KLF4, 30 min on ice, 6% native PAGE, recombinant protein, label: 32P
[2] = molecular target: Sp1 (VSMC nuclear extract) (UniProt Q01714); test: EMSA; settings: EMSA: 2 ug nuclear extract or 50 ng KLF4, 30 min on ice, 6% native PAGE; protein in an extract; label: 32P
[3] = molecular target: Sp1 (VSMC nuclear extract) (UniProt Q01714); test: EMSA supershift; settings: EMSA: 2 ug nuclear extract or 50 ng KLF4, 30 min on ice, 6% native PAGE; protein in an extract; label: 32P
[4] = test system: Sp1 (Homo sapiens); test: DPI-ELISA; settings: 80 ng Sp1, displaced by KLF4; DPI-ELISA: 2 pmol biotin-DNA, 2 h; salt and pH not stated; recombinant protein; label: biotin

Sequence: CGCCCCCGGTGGCCCAAACCCGGCCATTAAGAT (double strand) [CPI-17 GC box 3 mutant]
- binding result ([1]; legend: minimal binding, text: abolished): binds more weakly
- binding result [2]: no binding

Sequence: GGCGATCGGGGAGGGAAAGGTCCCAGAGCACGA (double strand) [CPI-17 GC box 1 mutant]
- binding result ([1]; mutation did not affect the minimal box 1 binding): binds more weakly

Sequence: GGTCCCAGAGCACGAGCCCCCGCCCCCGGTGGCCCC (double strand) [CPI-17 GC box 2 WT]
- binding result [1]: binds
- binding result [3]: binds

Sequence: GGCGATCGGGGAGGGGCGGGTCCCAGAGCACGA (double strand) [CPI-17 GC box 1 WT]
- binding result ([1]; minimal binding, far less than boxes 2 and 3): binds more weakly

Sequence: GGTCCCAGAGCACGAGCCCCAAACCCCGGTGGCCCC (double strand) [CPI-17 GC box 2 mutant]
- binding result [1]: no binding
- binding result [2]: no binding

Sequence: CGCCCCCGGTGGCCCCGCCCCGGCCATTAAGAT (double strand) [CPI-17 GC box 3 WT]
- binding result [1]: binds
- binding result [3]: binds

Sequence: GGTCCCAGAGCACGAGCCCCCGCCCCCGGTGGCCCC (double strand) [CPI-17 GC box 2 biotinylated]
- binding result [4]: binds

The exact form of at least one protein or probe is not confirmed. For some assays here: Negatives hold for the conditions tested. For some assays here: Weaker means in comparison with the reference protein, sequence or condition of that experiment. For some assays here: At least one result comes from cells or an extract, where the contact may be indirect.
